Test results published in publication PMC12040169 (PLOS Biology, 2025).
Some of the results follow.

system: T1, CTL2-GFP (C. trachomatis L2/434/Bu, GFP-expressing); design: species or system HeLa; Intracellular C. trachomatis growth in HeLa cells, bulk GFP fluorescence relative to DMSO; details: bulk GFP, single well; 28.5 h, 10 µM; inhibitor
T1 construct: L2/434/Bu, GFP-expressing

| Structure (SMILES) | % of control remaining [%] |
| --- | --- |
| O=C(NCCc1cccs1)Nc1ccccc1OC(F)(F)F [CBK044873] | 112.195 |
| O=C(OCCC1SC(NC2CC3C=CC2C3)=NC1=O)c1c(F)cccc1Cl (centres unmarked) [CBK200061T] | 144.161 |
| Nc1ncn(CC(O)CO)c2nc(N3CCOCC3)nc1-2 (centres unmarked) [CBK009231] | 106.911 |
| c1ccc2sc(CCSCCc3nc4ccccc4s3)nc2c1 [CBK261036] | 100.938 |
| CC(=O)N1CCc2c([nH]c3ccccc23)C1CCN(C)Cc1ccc(F)cc1 (centres unmarked) [CBK066969] | 151.04 |
| CNC(=O)CN1C(=O)CC2(C1=O)C(=O)N(CCOC)c1ccc(C)cc12 (centres unmarked) [CBK075401] | 119.502 |
| O=c1[nH]c2ncc(-c3cncc4ccccc34)nc2n1Cc1ccccc1 [CBK065113] | 131.513 |
| C[C@]12CN(Cc3ccc(F)cc3)C[C@H]1NC(=O)c1ccccc1C2=O [CBK284728] | 133.588 |
| O=C(Nc1ccc(Cl)cc1)N1CCN(CCCCc2ccc(F)cc2)CC1 [CBK017951C] | 118.68 |
| COC(=O)c1ccccc1NC(=O)CSc1nc(C)cc(C(F)(F)F)n1 [CBK268682] | 148.771 |
| CC1CCc2nc(NC(=O)CC3CCN(C(=O)Cc4ccccc4)CC3)sc2C1 (centres unmarked) [CBK286509] | 127.91 |
| COC(=O)c1csc2c1NC1(CCC1)[C@@H]1C[C@@H](O)[C@@H](O)[C@H]21 [CBK303255] | 81.5779 |
| Cc1ccc2ccccc2c1Cn1cc(-c2ccc([N+](=O)[O-])cc2)nc1SCC(=O)NC(C)(C)C [CBK264493] | 88.4919 |
| CC(C)(C)SCCNc1nc(Cl)nc(N2CCSCC2)n1 [CBK018768] | 140.099 |
| Cc1nnnn1-c1cc(NC(=O)NCCc2ccnn2C)ccc1F [CBK306428] | 129.602 |
| COc1ccc(S(=O)(=O)NCCc2ccc(S(N)(=O)=O)cc2)cc1[N+](=O)[O-] [CBK267598] | 141.507 |
| COC(=O)c1ccsc1NS(=O)(=O)c1ccc(C)c([N+](=O)[O-])c1 [CBK039061] | 135.087 |
| Cc1nonc1NC(=O)Nc1ccncc1 [CBK260982] | 95.3408 |
| CC1OC(n2ccc(=S)[nH]c2=O)C(O)C1O (centres unmarked) [CBK012231] | 139.707 |
| CC(NC(=O)c1ncoc1-c1ccc(F)cc1)c1ccccn1 (centres unmarked) [CBK283846] | 110.298 |
| CC(C)(C)C(=O)N1CCC(c2[nH]ncc2-c2ccncc2)CC1 [CBK284211] | 132.335 |
| c1ccc2c(-c3cn4ccnc4c(NC4CCOCC4)n3)cccc2c1 [CBK038047] | 175.233 |
| NC(=O)c1cnn(-c2cc(Oc3ccccc3)ncn2)c1N [CBK098664] | 96.633 |
| Cc1ccc(-c2nn(-c3cc(N4CCN(CCO)CC4)ccc3[N+](=O)[O-])c(=O)c3ccccc23)cc1C [CBK263713] | 103.087 |
| CC(c1ccccc1)n1c(S)nnc1-c1cc(C(C)(C)C)n[nH]1 (centres unmarked) [CBK268954] | 141.964 |
| OC1(c2ccc(F)cc2)CCC2CN(CC3CC3)CC21 (centres unmarked) [CBK283105] | 113.695 |

| Structure (SMILES) | % of control remaining [%] |
| --- | --- |
| Cc1ccc(F)c(OC2(C(=O)O)CCN(Cc3ncc[nH]3)CC2)c1 [CBK307062] | 97.5137 |
| Cc1ccc(C(=O)N2CCN(Cc3cc(=O)n4ccsc4n3)CC2)cn1 [CBK305700] | 115.942 |
| NC(=O)c1cccnc1N1CCNCC1 [CBK025310C] | 120.816 |
| COC(=O)Nc1cc2sccc2nc1C(F)(F)F [CBK019229] | 154.312 |
| CCOC(=O)c1cnc(SC)nc1NCCc1c[nH]c2cc(F)ccc12 [CBK092315] | 106.416 |
| Cc1ccc(O)c(CN[C@@H]2CCC(=O)N[C@H]2c2cc(F)cc(F)c2)c1 [CBK283132] | 131.597 |
| O=Cc1ccc(-c2nccnc2NS(=O)(=O)c2ccccc2)cc1 [CBK073845] | 136.399 |
| CC(=O)c1cc2c(N)c(/C(N)=N/C#N)sc2nc1C [CBK021202] | 106.182 |
| CC1(C)SC(c2ccc(F)cc2)N[C@H]1C(=O)O (some centres unmarked) [CBK025917] | 119.163 |
| CCc1ccc2c(c1)C(=O)CC1(CCN(C(=O)c3cc(OC)c(C)c(OC)c3)CC1)O2 [CBK168098] | 82.7371 |
| COc1ccccc1NS(=O)(=O)c1ccc2c(c1)C1C=CCC1C(c1ccc(C(=O)O)cc1)N2 (centres unmarked) [CBK268903] | 107.532 |
| COc1ccc(NC(=O)C(=O)N/N=C/c2ccc(C(=O)O)cc2)cc1 [CBK262255] | 128.933 |
| O=C(O)c1cccc(-c2ccc(/C=N/Nc3ccc([N+](=O)[O-])cn3)o2)c1 [CBK263196] | 109.619 |
| NC(=O)c1cccc(-c2nc(-c3cc4ccccc4o3)cnc2N)c1 [CBK063996] | 147.628 |
| COc1ccccc1Oc1ccc([N+](=O)[O-])cc1F [CBK002850] | 110.386 |
| Cc1nn(C)c(Cl)c1S(=O)(=O)NCCc1c[nH]c2ccccc12 [CBK067310] | 104.635 |
| COc1ccc(CCC(=O)NC[C@H]2CC[C@H](c3cc(C(N)=O)c4ccccc4n3)CC2)cc1 [CBK285920] | 133.403 |
| CCc1nn(CC(=O)N2CCCCC2C)c(=O)c2cc3occc3n12 (centres unmarked) [CBK283676] | 186.029 |
| COCCc1nc(C2CCC2)n(Cc2ccccc2C)n1 [CBK307238] | 139.542 |
| CN(CC(=O)O)C(=O)c1ccc(S(=O)(=O)N2CCCC2)cc1 [CBK265724] | 92.8744 |
| O=C(O)CCC(=O)N1C[C@@H]2C[C@H](C1)c1ccc(-c3ccc4ccccc4c3)c(=O)n1C2 [CBK289179] | 125.108 |
| C[C@@H](Nc1nc(-c2cc(C(F)(F)F)cc(C(F)(F)F)c2)cnc1N)c1ccccc1 [CBK063720] | 52.9852 |
| CCN1CC(C(=O)N2CCN(C(=O)c3ccccc3F)CC2)CC1=O (centres unmarked) [CBK282937] | 103.609 |
| COc1ccc(CN(C)c2c(C)nc3c(OCCc4cccc(OC)c4)cccn23)cc1 [CBK147467] | 150.466 |
| COc1ccc(S(=O)(=O)NC(C)C(=O)NCc2ccccn2)cc1Cl (centres unmarked) [CBK269275] | 117.889 |
| Cc1nc2sccn2c1CN1CCC(O)(c2ccc(F)cc2)CC1 [CBK282792] | 98.5579 |

14 successive entries already listed, quoted:

| Structure (SMILES) | % of control remaining [%] |
| --- | --- |
| O=Cc1ccc(-c2nccnc2NS(=O)(=O)c2ccccc2)cc1 [CBK073845] | 136.399 |
| CC(=O)c1cc2c(N)c(/C(N)=N/C#N)sc2nc1C [CBK021202] | 106.182 |
| CC1(C)SC(c2ccc(F)cc2)N[C@H]1C(=O)O (some centres unmarked) [CBK025917] | 119.163 |
| CCc1ccc2c(c1)C(=O)CC1(CCN(C(=O)c3cc(OC)c(C)c(OC)c3)CC1)O2 [CBK168098] | 82.7371 |
| COc1ccccc1NS(=O)(=O)c1ccc2c(c1)C1C=CCC1C(c1ccc(C(=O)O)cc1)N2 (centres unmarked) [CBK268903] | 107.532 |
| COc1ccc(NC(=O)C(=O)N/N=C/c2ccc(C(=O)O)cc2)cc1 [CBK262255] | 128.933 |
| O=C(O)c1cccc(-c2ccc(/C=N/Nc3ccc([N+](=O)[O-])cn3)o2)c1 [CBK263196] | 109.619 |
| NC(=O)c1cccc(-c2nc(-c3cc4ccccc4o3)cnc2N)c1 [CBK063996] | 147.628 |
| COc1ccccc1Oc1ccc([N+](=O)[O-])cc1F [CBK002850] | 110.386 |
| Cc1nn(C)c(Cl)c1S(=O)(=O)NCCc1c[nH]c2ccccc12 [CBK067310] | 104.635 |
| COc1ccc(CCC(=O)NC[C@H]2CC[C@H](c3cc(C(N)=O)c4ccccc4n3)CC2)cc1 [CBK285920] | 133.403 |
| CCc1nn(CC(=O)N2CCCCC2C)c(=O)c2cc3occc3n12 (centres unmarked) [CBK283676] | 186.029 |
| COCCc1nc(C2CCC2)n(Cc2ccccc2C)n1 [CBK307238] | 139.542 |
| CN(CC(=O)O)C(=O)c1ccc(S(=O)(=O)N2CCCC2)cc1 [CBK265724] | 92.8744 |

(continued)

| Structure (SMILES) | % of control remaining [%] |
| --- | --- |
| Cc1nc(SCC(=O)c2cc(Cl)ccc2Cl)c2ccccc2n1 [CBK297543] | 171.078 |
| COCCCNC(=O)CN1CCCCC1Cn1nc(C)cc1C (centres unmarked) [CBK304009] | 94.6002 |
| O=C(Nc1cccc(S(=O)(=O)N2CCOCC2)c1)c1cc(-c2cccnc2)nc2ccc(Cl)cc12 [CBK267720] | 110.083 |
| CCN(CCO)c1ccc(Nc2cc(-c3cccc([N+](=O)[O-])c3)ncn2)cc1 [CBK091002] | 171.608 |
| CC(C)(C)NC(=O)[C@@H]1CNC[C@]12Cc1ccccc1C(=O)N2 [CBK285294] | 100.669 |
| O=S(=O)(Nc1cccc(-c2cnco2)c1)c1ccc(-c2cc(C(F)(F)F)on2)s1 [CBK067124] | 97.1801 |
| Cc1cc2c(cc1C)NC(CC(=O)Nc1cccc(Br)c1)C(=O)N2 (centres unmarked) [CBK269548] | 103.598 |
| O=C(O)c1cc(S(=O)(=O)NCCCN2CCOCC2)ccc1Cl [CBK299804] | 149.005 |
| O=C(O)c1ccc(CN2CC[C@H](c3nc4ccccc4o3)C2)cc1 [CBK289387] | 110.885 |
| O=C(CC1OCCc2ccsc21)N1CCCC(n2cccn2)C1 (centres unmarked) [CBK305154] | 102.175 |
| COc1ccc(OC)c(NC(=O)c2ccccc2C(=O)O)c1 [CBK287082] | 135.188 |
| Clc1ccc(CNC2CCCCC2NCc2ccc(Cl)nc2)cn1 (centres unmarked) [CBK025983] | 126.987 |
| COCc1cccc(-c2ccc(C(=O)N(C)CCN(C)C)c(N(C)C)n2)c1 [CBK106091] | 105.311 |
| CC(=O)c1c(C)nn(C(C)CC(=O)Nc2ccc(Cl)c(Cl)c2)c1C (centres unmarked) [CBK270021] | 143.122 |
| CCc1nc2ccc(C(=O)NCCN3CCCC3)cn2c1N(C)C(=O)c1ccncc1 [CBK146655] | 171.793 |
| Cc1ccc(Cl)c(N2CCN(CCCn3c(=S)[nH]c4ccccc4c3=O)CC2)c1 [CBK268011] | 124.337 |
| COc1cncc(-c2cnc(N)c(N[C@@H](CO)C(C)C)n2)c1 [CBK063734] | 81.6981 |
| COc1ccc(CN2/C(=N/c3ccccc3)S[C@H]3[C@@H]2[C@@H](O)[C@H](O)C[C@@H]3C(N)=O)cc1 [CBK288941] | 147.266 |
| Fc1ccccc1CN1CCC(Oc2nccnc2OCc2cccnc2)CC1 [CBK083157T] | 117.277 |
| O=C(O)c1ccc(NC(=O)c2nccnc2C(=O)O)cc1 [CBK260916] | 117.153 |
| COCC1CCCN(Cc2ccc(Br)cc2)C1 (centres unmarked) [CBK304624] | 115.244 |
| CC(C)(C)c1cc(CC2(NCc3ccco3)COC2)no1 [CBK289642] | 160.19 |
| CS(=O)(=O)Nc1nccnc1OC1CCN(CCc2ccccn2)CC1 [CBK084286] | 91.4057 |
| COC(=O)c1cccc(CCC2CC(=O)C=C(O)C2)c1 (centres unmarked) [CBK012720] | 112.255 |
| CCCNC(=O)CN1C(=O)N2CCCN=C2c2ccc(Cl)cc21 [CBK284389] | 117.968 |
